The text below walks through data of PubChem BioAssay AID493014 (National Center for Advancing Translational Sciences (NCATS), 2011).

A short description of the test: qHTS Assay to Find Inhibitors of Chronic Active B-Cell Receptor Signaling. The settings on record: ABC-DLBCL IkBa-CBG/CBR reporter, luminescence ratio (green luciferase fused to IkBa over red control in TMD8 lymphoma cells), 4 h. An outline of the steps: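 Concentration-response series (up to 46 uM) were applied to TMD8 dual-reporter cells for 4 h at 37C with doxycycline. Green/red ratio, after filter-overlap correction, defined %Activity; red signal alone was normalised to basal cells and zero luminescence.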
(In general: In qHTS, concentration-response curves come from the screen itself.)

The mark [1] stands for this setting: measured here: CBR red luminescence, cell number.
Setting [2] is: measured here: IkBa-CBG green luminescence.

Each structure is given as a SMILES string. The list shows a part of the results. Further columns of the screen follow, without active or inactive calls. Most of these compounds were active or inconclusive in the main read-out, so they are no random draw. The note in brackets gives the kind of curve behind each potency; many fits are weak.

Usually AC50 stands for the concentration giving half of the maximal activity seen.

As to `COc1ccc(NC(=O)/C(C#N)=C/C=C/c2ccco2)cc1`, the AC50 under setting [1] was 18.4 µM [rising, single point].

With `CC1CCN(c2ccccc2NC(=S)NC(=O)c2cccs2)CC1`, the AC50 under setting [1] is 11.2 µM [rising, partial curve, poor fit].

Regarding `CC(C)(C)NC(=S)N/N=C/c1cccnc1`, the AC50 was 35.5 µM [rising, single point] under setting [1] and 35.5 µM [falling, partial curve, poor fit] under setting [2].

For the molecule `C/C(=N\OC(=O)NC(C)C)c1sc(-c2ccc(Cl)cc2)nc1C`, the AC50 under setting [1] was 35.5 µM [falling, single point] and the AC50 under setting [2] is 15.8 µM [rising, partial curve, poor fit].

For the molecule `Cc1ccc(CC(=O)Nc2ccc(Cl)cn2)cc1`, the AC50 under setting [1] was 0.562 µM [rising, full curve, poor fit].

As to `C[C@H](CO)N1C[C@H](C)[C@H](CN(C)Cc2ccccc2)Oc2c(NC(=O)Nc3ccc(F)cc3)cccc2C1=O`, the AC50 under setting [1] was 8.2 µM [falling, partial curve, poor fit].

With `O=C(CSc1ccccn1)NCc1ccc2c(c1)OCO2`, under setting [1], the AC50 is 1.26 µM [rising, partial curve, poor fit].

In the case of `Cc1ccc(OCCSc2ncccn2)c(C)c1`, the AC50 under setting [1] is 1 µM [rising, full curve, poor fit].

Turning to `O=[N+]([O-])c1cccc2ccc(N3CCOCC3)nc12`, the AC50 under setting [1] was 35.5 µM [rising, single point].

Turning to `O=C(Nc1ccc([N+](=O)[O-])cc1)Nc1ccon1`, the AC50 under setting [1] is 7.94 µM [rising, partial curve] and the AC50 under setting [2] was 11.2 µM [falling, partial curve].

On to `COc1ccc(NC(=O)c2cc(-c3ccc(C)cc3O)n[nH]2)c(OC)c1`, for which, under setting [1], the AC50 is 11.2 µM [falling, partial curve].

Regarding `O=Nc1c(-c2cccc([N+](=O)[O-])c2)nc2ncccn12`, under setting [1], the AC50 was 6.31 µM [falling, single point].

As for `COc1ccccc1/C=C/C=N\N1CCN(Cc2ccccc2Cl)CC1`, the AC50 under setting [1] was 29.1 µM [falling, single point].

Turning to `c1nc2sc3c(c2c2nnnn12)CCCC3`, the AC50 under setting [1] is 0.0651 µM [falling, full curve, poor fit].

As for `COc1ccc(OCCCSc2ncccn2)cc1`, the AC50 under setting [1] was 14.6 µM [rising, partial curve, poor fit].

Regarding `CCCCCC(=O)N(O)C1CC(=O)N(c2ccccc2)C1=O` (stereo not given), the AC50 under setting [1] is 7.08 µM [falling, partial curve, poor fit].

On to `O=C(Nc1cccc([N+](=O)[O-])c1)Nn1cnnc1`, for which, under setting [1], the AC50 was 35.5 µM [rising, single point].

Take `O=C(N/N=C/c1cccnc1)c1sc2ccccc2c1Cl`: under setting [1], the AC50 was 12.6 µM [falling, partial curve].

As for `COc1ccccc1-c1oc2ccccc2c1C#CC1(O)CCCCC1`, under setting [1], the AC50 is 6.51 µM [falling, single point].

`COc1cccc(NC(=O)CN2C(=O)NC(C)(c3ccc(C)cc3)C2=O)c1` (stereo not given): the AC50 under setting [1] is 0.631 µM [falling, full curve, poor fit].

With `CC(C)(C)NC(=O)Cn1nc(C(F)(F)F)c2c1CCCC2`, under setting [1], the AC50 is 7.94 µM [rising, partial curve].

Regarding `O=C1c2ccccc2C(=O)C2OC12` (stereo not given), under setting [1], the AC50 is 0.316 µM [rising, full curve, poor fit].

Consider `Cc1cccc(Nc2cc(=O)[nH]c(=O)[nH]2)c1`, for which, under setting [1], the AC50 was 23.1 µM [falling, single point].

Regarding `Cc1cc(=O)[nH]c(N/N=C/c2c(F)c(F)c(F)c(F)c2F)n1`, under setting [1], the AC50 is 2.51 µM [falling, partial curve, poor fit].

`Cc1ccc(S(=O)c2snnc2C)cc1` (stereo not given): the AC50 under setting [1] was 0.708 µM [rising, full curve, poor fit].

For `OCCCc1nc2ccccc2n1CCOc1ccccc1`, the AC50 under setting [1] is 11.2 µM [falling, partial curve].

Regarding `Cn1nnnc1SCCNCc1ccc(F)cc1`, the AC50 under setting [1] was 3.55 µM [rising, full curve].

Consider `Cc1ccc(C)c(-n2cc(CNCCc3cnccn3)c(-c3ccccc3)n2)c1`, for which the AC50 under setting [1] is 0.501 µM [rising, partial curve, poor fit].

Turning to `COc1cccc(C(=O)N(C)c2nnc(-c3ccncc3)s2)c1`, the AC50 under setting [1] was 10 µM [rising, partial curve, poor fit].

Take `Cc1cccc(-c2nc(CS(=O)CC(=O)NCc3cccs3)c(C)o2)c1` (stereo not given): under setting [1], the AC50 was 1.3 µM [rising, full curve, poor fit].

Consider `CC(C)C(=O)Nc1cccc(-c2nc3ccccc3c(=O)o2)c1`, for which the AC50 under setting [1] is 16.4 µM [falling, single point].

On to `O=C(O)c1ccc(N/N=C/c2cccc3cccnc23)cc1`, for which the AC50 under setting [1] is 0.1 µM [falling, partial curve, poor fit].

Consider `CCOC(=O)c1c(C)[nH]c(C(=O)N/N=C/c2cc([N+](=O)[O-])ccc2O)c1C`, for which the AC50 under setting [1] is 15.8 µM [falling, partial curve, poor fit].

Take `COc1ccc(-c2cc3cc(-c4cc(OC)c(OC)c(OC)c4)ccc3o2)cc1`: under setting [1], the AC50 was 7.31 µM [rising, partial curve, poor fit].

Consider `Cc1ccc(NC(=S)N2CCC(N(C)CC3CCCO3)CC2)cc1C` (stereo not given), for which the AC50 under setting [1] was 12.6 µM [rising, partial curve, poor fit].

In the case of `Cc1nc(-c2ccccc2)sc1C(=O)CSc1ccc(F)cc1`, the AC50 runs as follows: under setting [1], 1.64 µM [rising, full curve]; under setting [2], 3.26 µM [rising, full curve, poor fit].

As for `O=C(O)CCSc1nc2ccc(Br)cc2[nH]1`, the AC50 under setting [1] was 35.5 µM [falling, single point].

Turning to `N#CCCN1CCN(C(=S)c2ccc(-c3cc(Cl)ccc3Cl)o2)CC1`, the AC50 under setting [1] was 1.12 µM [falling, full curve, poor fit].

As to `COc1ccc(NC(=O)CN(C)C(=O)c2cccc(Oc3ccccc3)c2)cc1`, the AC50 under setting [1] was 29.1 µM [falling, single point].

Turning to `O=C1/C(=C/c2cccc(F)c2)Oc2cc(O)ccc21`, under setting [2], the AC50 is 12.6 µM [rising, partial curve, poor fit].

For `COc1nc(-c2ccccc2)ncc1S(=O)(=O)c1ccccc1`, under setting [1], the AC50 is 11.2 µM [rising, partial curve, poor fit].
